Record: PubChem BioAssay AID602196 (INSERM, 2012)
Shown is a random part of about 23,000 reagents. Over the whole deposit, 455 (2%) are marked active. 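Active includes both protection and sensitisation; some change values fall well beyond the stated -50 to +50 range.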 Reagents against one gene are numbered here. Not given: the amount of reagent.

Aim: 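Knock-downs that protect lung cancer cells from cisplatin or sensitise them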
Cell system: human A549 lung cancer cells
Reagent: siRNA pair against human genes
Timing: 48 h transfection before cisplatin; time from cisplatin to read-out not stated
Treatment: cisplatin at a dose killing half of control-siRNA cells; exact dose and duration not given
Detection: 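Shift in cisplatin death relative to control siRNA, from -50 (all cells die) to +50 (no cells die); siRNAs harmful on their own scored 0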
Reading the numbers: two-siRNA summed score (-2 to +2): higher = both siRNAs protect from cisplatin killing; -2 means both sensitise; mean protection from cisplatin (shift in death) and protection from cisplatin (shift in death), siRNA C and protection from cisplatin (shift in death), siRNA D: higher = protection from cisplatin killing
Hit rule: 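Each siRNA scores 0 if harmful alone by LDH or WST-1, otherwise +1 if it reduces and -1 if it increases cisplatin killing; a gene is active when both siRNAs agree (sum +2 or -2)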
Calls: active = both siRNAs shift cisplatin killing the same way; inactive = no consistent shift, or siRNA harmful alone

| gene | reagent | two-siRNA summed score (-2 to +2) | mean protection from cisplatin (shift in death) (%) | protection from cisplatin (shift in death), siRNA C (%) | protection from cisplatin (shift in death), siRNA D (%) | call |
| --- | --- | --- | --- | --- | --- | --- |
| POLR1B | 1 | 0 | -0.3 | 15.5 | -16.1 | inactive |
| SPATA19 | 1 | 0 | 3.1 | 5.9 | 0.3 | inactive |
| FGL1 | 1 | 0 | 30.2 | 49.9 | 10.5 | inactive |
| STAT2 | 1 | -1 | -12.3 | -9.3 | -15.3 | inactive |
| DNM1P5 | 1 | 1 | 23.3 | 9.3 | 37.3 | inactive |
| TES | 1 | 1 | 17.5 | 19.6 | 15.5 | inactive |
| CLDN4 | 1 | 1 | 12.7 | 16.7 | 8.7 | inactive |
| SYT10 | 1 | 1 | 14 | 31.4 | -3.5 | inactive |
| KRT76 | 1 | 0 | 4.7 | 9.1 | 0.2 | inactive |
| ZNF469 | 1 | 0 | 11.3 | 8.4 | 14.1 | inactive |
| ITFG2-AS1 | 1 | 0 | 3.5 | -17.4 | 24.3 | inactive |
| CCDC141 | 1 | -1 | 3.5 | 22.5 | -15.5 | inactive |
| LIAS | 1 | 0 | -3.5 | -11.3 | 4.3 | inactive |
| LOC441453 | 1 | -1 | -0.6 | -9.3 | 8 | inactive |
| IGSF6 | 1 | 1 | 11.4 | 6.7 | 16 | inactive |
| TAS2R60 | 1 | 0 | 3.5 | -12.4 | 19.3 | inactive |
| LOC284931 | 1 | 1 | 20.9 | 28.2 | 13.7 | inactive |
| LOC286297 | 1 | 0 | 25.4 | 18.9 | 31.9 | inactive |
| ZHX1 | 1 | 0 | 2.6 | 9.7 | -4.5 | inactive |
| ZHX1 | 2 | 0 | 13.7 | 16.9 | 10.5 | inactive |
| POM121 | 1 | 0 | -0.9 | 0.7 | -2.5 | inactive |
| UNC93A | 1 | 0 | 6.4 | 10.7 | 2.2 | inactive |
| LOC441419 | 1 | 0 | -3.4 | -1.2 | -5.5 | inactive |
| TMEM98 | 1 | 0 | 1.5 | 4.5 | -1.5 | inactive |
| GOLM2 | 1 | 0 | 0.1 | -1.6 | 1.9 | inactive |
| LOC343578 | 1 | 0 | 12.9 | 17.5 | 8.2 | inactive |
| SLC25A2 | 1 | 1 | 15.5 | 12.5 | 18.4 | inactive |
| NBR1 | 1 | 0 | -3.2 | -20.9 | 14.4 | inactive |
| LINC03103 | 1 | 0 | -1.6 | -4.1 | 0.8 | inactive |
| MORC2-AS1 | 1 | 0 | 6.1 | 14.2 | -1.9 | inactive |
| SLC8A1 | 1 | 1 | 19.3 | 29 | 9.6 | inactive |

The list goes on; the last 4 above are carried over.
| gene | reagent | two-siRNA summed score (-2 to +2) | mean protection from cisplatin (shift in death) (%) | protection from cisplatin (shift in death), siRNA C (%) | protection from cisplatin (shift in death), siRNA D (%) | call |
| --- | --- | --- | --- | --- | --- | --- |
| NBR1 | 1 | 0 | -3.2 | -20.9 | 14.4 | inactive |
| LINC03103 | 1 | 0 | -1.6 | -4.1 | 0.8 | inactive |
| MORC2-AS1 | 1 | 0 | 6.1 | 14.2 | -1.9 | inactive |
| SLC8A1 | 1 | 1 | 19.3 | 29 | 9.6 | inactive |
| LOC122867 | 1 | 1 | 12.8 | 21.2 | 4.3 | inactive |
| TNS2 | 1 | 0 | -2.7 | 7.4 | -12.7 | inactive |
| FUT6 | 1 | -1 | 7.9 | 24.9 | -9 | inactive |
| SP8 | 1 | 1 | 15.4 | 18.1 | 12.7 | inactive |
| TNIP1 | 1 | 0 | 18.3 | 0.9 | 35.8 | inactive |
| KCNMB4 | 1 | 0 | 0.7 | -2.9 | 4.4 | inactive |
| LOC389742 | 1 | 0 | 37.3 | 9.6 | 65 | inactive |
| PXMP4 | 1 | 0 | 2 | 1.5 | 2.4 | inactive |
| CERS1 | 1 | 0 | 16.5 | 13.5 | 19.6 | inactive |
| GORASP1 | 1 | 0 | 2.6 | 1.6 | 3.5 | inactive |
| LOC442620 | 1 | 0 | 4 | 0.5 | 7.4 | inactive |
| SLC38A10 | 1 | 0 | 2.6 | -0.7 | 6 | inactive |
| LOC441800 | 1 | 0 | -1.5 | -1.2 | -1.8 | inactive |
| SCAP | 1 | 0 | -18 | 11.2 | -47.3 | inactive |
| LOC440372 | 1 | -1 | -8 | -19.6 | 3.6 | inactive |
| TSPAN5 | 1 | 0 | 3.5 | -8.5 | 15.4 | inactive |
| PARP2 | 1 | 0 | 3.3 | -1.9 | 8.6 | inactive |
| SLC31A2 | 1 | 0 | 7.7 | 6.6 | 8.9 | inactive |
| LOC388123 | 1 | 0 | 2.3 | -0.5 | 5 | inactive |
| SEMA4B | 1 | 0 | 12.3 | 22.7 | 1.8 | inactive |
| RMI1 | 1 | 0 | 9.7 | 4.1 | 15.3 | inactive |
| LOC284134 | 1 | 0 | 6.9 | 12 | 1.7 | inactive |
| TRARG1 | 1 | 1 | 6.1 | 1.2 | 10.9 | inactive |
| PYCR1 | 1 | 0 | 18.9 | 31.3 | 6.4 | inactive |
| TKT | 1 | 0 | 17.4 | 11.1 | 23.6 | inactive |
| ZNF436-AS1 | 1 | 0 | 12.3 | 11 | 13.5 | inactive |
